Numbered stars: 1 amine (or outer) side, 2 acyl side, 3 side chain; on linkers, the order of the positions; unused ones are H or OH. Bridge positions count the residues as written; N and C are the ends. Square brackets hold non-standard residues; d marks the D form. Peptide text beside a SMILES is read from it. * marks the point of attachment. X5 = CC[C@@H](C)[C@@H](N[*:1])[C@@H](O)CC(=O)O[C@H](C(=O)[C@H](C)C(=O)[*:2])C(C)C; X1 = CC[C@H](C)[C@@H](N[*:1])[C@@H](O)CC(=O)O[C@H](C(=O)[C@H](C)C(=O)[*:2])C(C)C; X6 = CC[C@H](C)[C@@H](N[*:1])[C@H](O)CC(=O)O[C@H](C(=O)[C@H](C)C(=O)[*:2])C(C)C; NMeY = CN[C@@H](Cc1ccc(O)cc1)C(=O)O; dNMeL = CN[C@H](CC(C)C)C(=O)O; Lauroyl = CCCCCCCCCCCC(=O)*; Isobutyryl = CC(C)C(=O)*; Octanoyl = CCCCCCCC(=O)*; Cbz = O=C(OCc1ccccc1)*; Pentanoyl = CCCCC(=O)*; Propionyl = CCC(=O)*
How the values were obtained:
[1] = general procedure: solution-phase peptide synthesis; EDC/HOBT; DCC
[2] = test system: Balb/c splenocytes (resting lymphocytes); experiment: Lymphocyte viability (LcV) assay; format: cell-based, murine; conditions: therapeutic index
Protocol: Forty two (42) didemnin compounds (see Table 1) were evaluated for cytotoxicity to one of the lymphocyte populations in the MLR (i.e., Balb/c splenocytes). The purpose of the lymphocyte viability assay (LcV) is to measure metabolic activity in lymphocytes after they have been exposed to the compounds for the duration of an under conditions equivalent to the MLR. The inverse of the data yields cytotoxicity information about the compounds on murine lymphocytes. The rationale of using resting cells, in this case unstimulated lymphocytes, to measure cytotoxicity has a strategic importance. In the MLR the heterogenous cell populations are predominantly resting cells when the assay begins.
Test compounds were prepared in two sets as described above. Splenocytes were prepared as described previously from one murine strain (Balb/c), and a volume of 200 μL of the cell suspension was added to one set of test compounds and control wells.
Assay plates were incubated as in the MLR and then pulsed overnight 75 μL per well MTT-thiazolyl blue solution (150 μg). The plates were decanted and the resulting insoluble formazan crystals were dissolved in 200 μL of isopropyl alcohol. Absorbance at 570 nm was measured.
The LcV data were calculated as a percentage of basal metabolic activity, or percent viability, relative to BALB/c control, and an LC50 value was interpolated for each test compound.

[3] = test system: concanavalin A-induced lymphoblasts (Con A splenocytes); experiment: Lymphoblast viability (LbV) assay; conditions: therapeutic index

Row | Compound | step yield ([1]; late stage modification step) [%] | step yield ([1]; coupling step) [%] | ratio LcV (LC50)/MLR (IC50) [2] | ratio LbV (LC50)/MLR (IC50) [3]
1 | [H6 -N-MePhe^6 ]Didemnin B | 32 | – | – | –
2 | [Hip^3 oxime]Didemnin B | 47 | – | – | –
3 | [H6 Me2 Tyr6 ]Didemnin B | 20 | – | – | –
4 | [D-Pro^8 ]Didemnin B | 97 | – | – | –
5 | [Isobutyryl^9, D-Pro^8 ] Didemnin B | – | 42 | – | –
6 | CCCCCCCCCCCC(=O)N(C)[C@H](CC(C)C)C(=O)N[C@@H]1C(=O)N[C@H]([C@@H](C)CC)[C@@H](O)CC(=O)O[C@@H](C(C)C)C(=O)[C@H](C)C(=O)N[C@@H](CC(C)C)C(=O)N2CCC[C@H]2C(=O)N(C)[C@@H](Cc2ccc(OC)cc2)C(=O)O[C@@H]1C [Compound 24, N^α -Dodecanoyldidemnin A] (Lauroyl-[dNMeL]T[X1]LP[NMeY](Me); ester 2-C) | – | – | > 84 | 2
7 | CC[C@H](C)[C@H]1NC(=O)[C@@H](NC(=O)[C@@H](CC(C)C)N(C)C(=O)[C@@H](N)CC(C)C)[C@@H](C)OC(=O)[C@H](Cc2ccc(OC)cc2)N(C)C(=O)[C@@H]2CCCN2C(=O)[C@H](CC(C)C)NC(=O)[C@@H](C)C(=O)[C@H](C(C)C)OC(=O)C[C@@H]1O [Compound 27, N-(L-Leu)Didemnin A] (H-L[dNMeL]T[X1]LP[NMeY](Me); ester 3-C) | – | – | > 13,000 | 5
8 | CC[C@H](C)[C@H]1NC(=O)[C@@H](NC(=O)[C@@H](CC(C)C)N(C)C(=O)[C@@H]2CCCN2C(=O)C(C)C)[C@@H](C)OC(=O)[C@H](Cc2ccc(OC)cc2)N(C)C(=O)[C@@H]2CCCN2C(=O)[C@H](CC(C)C)NC(=O)[C@@H](C)C(=O)[C@H](C(C)C)OC(=O)C[C@@H]1O [Compound 33, [Isobutyryl^9]Didemnin B] (Isobutyryl-P[dNMeL]T[X1]LP[NMeY](Me); ester 3-C) | – | – | 60,000 | 6
9 | CC[C@H](C)[C@H]1NC(=O)[C@@H](NC(=O)[C@@H](CC(C)C)N(C)C(=O)[C@@H]2CCCN2C(=O)[C@H](C)O)[C@@H](C)OC(=O)[C@H](CC2CCC(OC)CC2)N(C)C(=O)[C@@H]2CCCN2C(=O)[C@H](CC(C)C)NC(=O)[C@@H](C)C(=O)[C@H](C(C)C)OC(=O)C[C@@H]1O (stereo partly drawn) [Compound 15, [H6 Me2 Tyr6]Didemnin B] | – | – | 100 | 2
10 | CCCCC(=O)N(C)[C@H](CC(C)C)C(=O)N[C@@H]1C(=O)N[C@H]([C@@H](C)CC)[C@@H](O)CC(=O)O[C@@H](C(C)C)C(=O)[C@H](C)C(=O)N[C@@H](CC(C)C)C(=O)N2CCC[C@H]2C(=O)N(C)[C@@H](Cc2ccc(OC)cc2)C(=O)O[C@@H]1C [Compound 21, N^α -Pentanoyldidemnin A] (Pentanoyl-[dNMeL]T[X1]LP[NMeY](Me); ester 2-C) | – | – | 20,000 | < 1
11 | Didemnin Y [Compound 42] | – | – | > 11,000 | 2
12 | CC[C@H](C)[C@H]1NC(=O)[C@@H](NC(=O)[C@@H](CC(C)C)N(C)C(=O)OCc2ccccc2)[C@@H](C)OC(=O)[C@H](Cc2ccc(OC)cc2)N(C)C(=O)[C@@H]2CCCN2C(=O)[C@H](CC(C)C)NC(=O)[C@@H](C)C(=O)[C@H](C(C)C)OC(=O)C[C@H]1O [Compound 4, Z-[(3R,4R,5S)Ist^2]Didemnin A] (Cbz-[dNMeL]T[X6]LP[NMeY](Me); ester 2-C) | – | – | 500 | 12
13 | CC[C@H](C)[C@@H](NC(=O)[C@@H](NC(=O)[C@@H](CC(C)C)NC)[C@@H](C)O)[C@@H](O)CC(=O)O[C@H](C(=O)[C@H](C)C(=O)N[C@@H](CC(C)C)C(=O)N1CCC[C@H]1C(=O)N(C)[C@@H](Cc1ccc(OC)cc1)C(=O)O)C(C)C [Compound 17, Acyclodidemnin A] (H-[dNMeL]T[X1]LP[NMeY](Me)-OH) | – | – | > 18,000 | 436
14 | CC[C@H](C)[C@H]1NC(=O)[C@@H](NC(=O)[C@@H](CC(C)C)N(C)C(=O)[C@@H]2CCCN2C(C)=O)[C@@H](C)OC(=O)[C@H](Cc2ccc(OC)cc2)N(C)C(=O)[C@@H]2CCCN2C(=O)[C@H](CC(C)C)NC(=O)[C@@H](C)C(=O)[C@H](C(C)C)OC(=O)C[C@@H]1O [Compound 31, [Acetyl^9]Didemnin B] (Ac-P[dNMeL]T[X1]LP[NMeY](Me); ester 3-C) | – | – | 14,000 | 1
15 | CC[C@@H](C)[C@H]1NC(=O)[C@@H](NC(=O)[C@@H](CC(C)C)N(C)C(=O)OCc2ccccc2)[C@@H](C)OC(=O)[C@H](Cc2ccc(OC)cc2)N(C)C(=O)[C@@H]2CCCN2C(=O)[C@H](CC(C)C)NC(=O)[C@@H](C)C(=O)[C@H](C(C)C)OC(=O)C[C@@H]1O [Compound 5, Z-[(3S,4R,5R)-Ist^2]Didemnin A] (Cbz-[dNMeL]T[X5]LP[NMeY](Me); ester 2-C) | – | – | 33,000 | 43
16 | CC[C@H](C)[C@H]1NC(=O)[C@@H](NC(=O)[C@@H](CC(C)C)N(C)C(=O)[C@@H]2CCCN2C(=O)[C@H](C)O)[C@@H](C)OC(=O)[C@H](Cc2ccc(O)cc2)NC(=O)[C@@H]2CCCN2C(=O)[C@H](CC(C)C)NC(=O)[C@@H](C)C(=O)[C@H](C(C)C)OC(=O)C[C@@H]1O [Compound 13, Didemnin N] | – | – | > 270 | 1
17 | CCCCCCCC(=O)N(C)[C@H](CC(C)C)C(=O)N[C@@H]1C(=O)N[C@H]([C@@H](C)CC)[C@@H](O)CC(=O)O[C@@H](C(C)C)C(=O)[C@H](C)C(=O)N[C@@H](CC(C)C)C(=O)N2CCC[C@H]2C(=O)N(C)[C@@H](Cc2ccc(OC)cc2)C(=O)O[C@@H]1C [Compound 23, N^α -Octanoyldidemnin A] (Octanoyl-[dNMeL]T[X1]LP[NMeY](Me); ester 2-C) | – | – | 1,800 | 4
18 | CC[C@H](C)[C@H]1NC(=O)[C@@H](NC(=O)[C@@H](CC(C)C)N(C)C(=O)[C@H]2CCCN2)[C@@H](C)OC(=O)[C@H](Cc2ccc(OC)cc2)N(C)C(=O)[C@@H]2CCCN2C(=O)[C@H](CC(C)C)NC(=O)[C@@H](C)C(=O)[C@H](C(C)C)OC(=O)C[C@@H]1O [Compound 29, N^α -(D-Pro)-Didemnin A] (H-[dP][dNMeL]T[X1]LP[NMeY](Me); ester 3-C) | – | – | > 8,000 | 2
19 | CC[C@H](C)[C@H]1NC(=O)[C@@H](NC(=O)[C@@H](CC(C)C)N(C)C(=O)[C@H](C)NC(=O)[C@H](C)O)[C@@H](C)OC(=O)[C@H](Cc2ccc(OC)cc2)N(C)C(=O)[C@@H]2CCCN2C(=O)[C@H](CC(C)C)NC(=O)[C@@H](C)C(=O)[C@H](C(C)C)OC(=O)C[C@@H]1O [Compound 35, [L-Ala^8]Didemnin B] | – | – | > 30,000 | 2
20 | CC[C@H](C)[C@H]1NC(=O)[C@@H](NC(=O)[C@@H](CC(C)C)N(C)C(=O)[C@@H]2CCCN2C(=O)[C@H](C)O)[C@@H](C)OC(=O)[C@H](Cc2ccc(OC)cc2)N(C)C(=O)[C@@H]2CCCN2C(=O)[C@H](CC(C)C)NC(=O)[C@@H](C)C(=NO)[C@H](C(C)C)OC(=O)C[C@@H]1O [Compound 11, [Hip^3 oxime]Didemnin B] | – | – | 10,000 | 2
21 | CC[C@H](C)[C@H]1NC(=O)[C@@H](NC(=O)[C@@H](CC(C)C)N(C)C(=O)OCc2ccccc2)[C@@H](C)OC(=O)[C@H](Cc2ccc(OC)cc2)N(C)C(=O)[C@@H]2CCCN2C(=O)[C@H](CC(C)C)NC(=O)[C@@H](C)C(=O)[C@H](C(C)C)OC(=O)C[C@@H]1O [Compound 3, Z-Didemnin A] (Cbz-[dNMeL]T[X1]LP[NMeY](Me); ester 2-C) | – | – | 7400 | 2
22 | CC[C@H](C)[C@H]1NC(=O)[C@@H](NC(=O)[C@@H](CC(C)C)N(C)C(=O)[C@@H]2CCCN2C(=O)[C@H](C)O)[C@@H](C)OC(=O)[C@H](CC2CCCCC2)N(C)C(=O)[C@@H]2CCCN2C(=O)[C@H](CC(C)C)NC(=O)[C@@H](C)C(=O)[C@H](C(C)C)OC(=O)C[C@@H]1O [Compound 16, [H6 -N-MePhe^6]Didemnin B] | – | – | > 18,000 | 1
23 | CC[C@H](C)[C@H]1NC(=O)[C@@H](NC(=O)[C@@H](CC(C)C)NC)[C@@H](C)OC(=O)[C@H](Cc2ccc(OC)cc2)N(C)C(=O)[C@@H]2CCCN2C(=O)[C@H](CC(C)C)NC(=O)[C@@H](C)C(=O)[C@H](C(C)C)OC(=O)C[C@@H]1O [Compound 2, Didemnin A] (H-[dNMeL]T[X1]LP[NMeY](Me); ester 2-C) | – | – | 11,000 | 15
24 | CC[C@H](C)[C@H]1NC(=O)[C@@H](NC(=O)[C@@H](CC(C)C)N(C)C(=O)[C@@H]2CCCN2C(=O)[C@H](C)O)[C@@H](C)OC(=O)[C@H](Cc2ccc(OC)c(I)c2)N(C)C(=O)[C@@H]2CCCN2C(=O)[C@H](CC(C)C)NC(=O)[C@@H](C)C(=O)[C@H](C(C)C)OC(=O)C[C@@H]1O [Compound 14, Iododidemnin B] | – | – | > 12,000 | 1
25 | CCC(=O)N1CCC[C@H]1C(=O)N(C)[C@H](CC(C)C)C(=O)N[C@@H]1C(=O)N[C@H]([C@@H](C)CC)[C@@H](O)CC(=O)O[C@@H](C(C)C)C(=O)[C@H](C)C(=O)N[C@@H](CC(C)C)C(=O)N2CCC[C@H]2C(=O)N(C)[C@@H](Cc2ccc(OC)cc2)C(=O)O[C@@H]1C [Compound 32, [Propionyl^9]Didemnin B] (Propionyl-P[dNMeL]T[X1]LP[NMeY](Me); ester 3-C) | – | – | 8,500 | 1

— patent US6156724A (priority 1998, dated 2000)
